Measurements reported in PubChem BioAssay AID686938 (Drosophila RNAi Screening Center, 2013).
Assay: 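Looking for CRAC channel components and the factors controlling them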 (primary screen). System: Drosophila S2R+ cells. Reagent: long dsRNA against Drosophila genes, about 0.25 µg dsRNA per well, roughly 10,000 cells. Time to read-out: 5 days of knock-down before the calcium assay. Treatment: thapsigargin (SERCA pump blocker) to empty calcium stores; entry signal taken 4 min after adding it. Read-out: 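Duplicate raw fluo-4 intensities per well from a plate reader, at rest and four minutes after thapsigargin emptied calcium stores; entry-to-rest ratio filled for only some wells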. Direction: calcium entry signal: higher = stronger calcium signal after store depletion; resting calcium signal: higher = higher resting calcium signal. Units: calcium entry signal in fluorescence units; resting calcium signal in fluorescence units. Call rule: 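Called when the plate z-score of the entry-to-rest ratio, mean of duplicates, falls below −3; wells with low overall dye signal (Fmax z below −2) or more than five off-targets excluded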. Meaning of the calls: active = strongly reduced calcium entry; inactive = no strong reduction.
In all, the deposit lists about 23,000 reagents; this is a random part of those that have a named target and a result. Over the whole deposit, 75 (0.33%) are marked active. 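Raw plate signals without normalisation; calls rest on plate z-scores that were not deposited; ratio present for only 364 wells.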 Reagent sequences are not shown. The record does not give: the dose of the treatment.

CG32669 [DRSC18864] | calcium entry signal, replicate 1: 5.01e7; calcium entry signal, replicate 2: 3.39e7; resting calcium signal, replicate 1: 2.16e7; resting calcium signal, replicate 2: 1.55e7; Call: inactive
CG10912 [DRSC06009] | calcium entry signal, replicate 1: 3.75e7; calcium entry signal, replicate 2: 3.52e7; resting calcium signal, replicate 1: 1.73e7; resting calcium signal, replicate 2: 1.74e7; Call: inactive
bsf [DRSC02035] | calcium entry signal, replicate 1: 3.83e7; resting calcium signal, replicate 1: 1.68e7; Call: inactive
ebd2 [DRSC11682] | calcium entry signal, replicate 1: 3.01e7; calcium entry signal, replicate 2: 4.29e7; resting calcium signal, replicate 1: 1.62e7; resting calcium signal, replicate 2: 2.08e7; Call: inactive
Syn2 [DRSC06902] | calcium entry signal, replicate 1: 4.78e7; calcium entry signal, replicate 2: 5.38e7; resting calcium signal, replicate 1: 2.26e7; resting calcium signal, replicate 2: 2.56e7; Call: inactive
CG6739 [DRSC02987] | calcium entry signal, replicate 1: 2.93e7; calcium entry signal, replicate 2: 4.09e7; resting calcium signal, replicate 1: 1.64e7; resting calcium signal, replicate 2: 1.93e7; Call: inactive
Gr21a [DRSC00366] | calcium entry signal, replicate 1: 3.92e7; calcium entry signal, replicate 2: 4.11e7; resting calcium signal, replicate 1: 1.86e7; resting calcium signal, replicate 2: 1.86e7; Call: inactive
Atg12 [DRSC09803] | calcium entry signal, replicate 1: 3.07e7; calcium entry signal, replicate 2: 3.79e7; resting calcium signal, replicate 1: 1.57e7; resting calcium signal, replicate 2: 1.66e7; Call: inactive
RIC-3 [DRSC04243] | calcium entry signal, replicate 1: 3.74e7; resting calcium signal, replicate 1: 2.03e7; Call: inactive
RIC-3 [DRSC04543] | calcium entry signal, replicate 1: 5.68e7; calcium entry signal, replicate 2: 6.35e7; resting calcium signal, replicate 1: 2.76e7; resting calcium signal, replicate 2: 2.55e7; Call: inactive
DNaseII [DRSC16310] | calcium entry signal, replicate 1: 4.17e7; calcium entry signal, replicate 2: 3.44e7; resting calcium signal, replicate 1: 1.93e7; resting calcium signal, replicate 2: 1.54e7; Call: inactive
EndoA [DRSC14775] | calcium entry signal, replicate 1: 1.93e7; calcium entry signal, replicate 2: 2.20e7; resting calcium signal, replicate 1: 9.78e6; resting calcium signal, replicate 2: 8.90e6; Call: inactive
